# Hit rate of the full screen: of about 1,200 compounds, about 970 (81%) were called active. The rule behind the calls is not given here. So high a share suggests a set chosen from earlier hits. Only a part is listed here, and it is no random draw. Potency and affinity values are given separately.
# Target: Transforming acidic coiled-coil-containing protein 3 (Homo sapiens) (UniProt Q9Y6A5)
# Experiment: ARNT/TACC3 interaction disruptors, potency, confirmation, biochemical, AlphaScreen, cherry-picked samples (AID 651703);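 note: TACC3 partner is the GST-tagged E629A mutant dimer; hits lower the signal meaning they disrupt ARNT binding to TACC3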
# Conditions: AlphaScreen His-ARNT PAS-B / GST-TACC3 binding, luminescence; at 68 µM (top of the series)
row,Structure (SMILES),"activity change, negative = inhibition"
1,COc1ccc(Cc2c(O)[nH]c(=O)[nH]c2=O)c(OC)c1,inactive: 2.29%
2,CCOC(=O)c1cc2c(cn1)[C@H](CCO)NC2,inactive: -19.2%
3,CC1CN(c2ccc([N+](=O)[O-])c3cccnc23)CC(C)N1 (centres undefined),inactive: -9.11%
4,CCCCOCCCn1c(N)c(C(=O)OCCOC)c2nc3ccccc3nc21,inactive: -3.71%
5,Clc1cccc(CNCCc2c[nH]c3ccccc23)c1,inactive: -28.2%
6,CCOC(=O)c1cc2c(cn1)[C@@H](CCO)NC2,inactive: -12.3%
7,COc1ccc(-c2cc(=NCCC(=O)O)c3cc(C)ccc3o2)cc1,inactive: -30.8%
8,O=c1[nH]c(O)c(Cc2ccc3c(c2)OCO3)c(=O)[nH]1,inactive: 3.74%
9,COCCOC(=O)c1c(N)n(Cc2ccco2)c2nc3ccccc3nc12,inactive: -27.2%

# Copied from the list.
# For activity change, negative = inhibition, COc1ccc(-c2cc(=NCCC(=O)O)c3cc(C)ccc3o2)cc1 reads inactive: -30.8%
# For activity change, negative = inhibition, Clc1cccc(CNCCc2c[nH]c3ccccc23)c1 reads inactive: -28.2%
